## Screening data, single-dose tests

Values are the deposited “Percent Effect”, in %. The controls that fix the scale are not given in the record; negative values are as filed. This is an unselected part of the compounds tested.

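Whole-parasite assay of Trypanosoma brucei over 72 hours; the read-out is not stated. Tested at 10 µM. Direction is inferred from retests: higher values go with stronger inhibition. Values scatter widely below zero; nearly all retest evidence comes from the higher of the two concentrations used. Of about 2,700 compounds tested this way, about 14 (0.51%) reached 50% or more in at least one test.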

For Cc1cccc(C(=O)NCCCN2CCc3ccccc3C2)c1C the result was -27.51%.
For Cc1ccccc1OCCN1CCn2c(C)nnc2C1 the result was -34.33%.
For CN(CC(=O)NC1(C)CCS(=O)(=O)C1)Cc1ccc(F)c(F)c1 (centres unmarked) the result was -8.498%.
For CCn1nc2c(cc1=O)CN(CC(=O)Nc1nncs1)CC2 the result was -31.94%.
For COCc1nc(C(=O)N2CCCC2c2noc(C)n2)cs1 (centres unmarked) the result was -27.38%.
For Cc1ccoc1C(=O)NC1CCN(Cc2ccccc2F)CC1 the result was -23.23%.
For CCn1ncc2c1CCCC2NCc1cccc2c1OCCCO2 (centres unmarked) the result was -8.672%.
For Cc1cc(C)c(CNC(=O)NCC2COCCO2)c(=O)[nH]1 (centres unmarked) the result was -56.87%.
For Cc1ccccc1OCCN(C)C(=O)NC(C)c1nncn1C (centres unmarked) the result was -8.818%.
For CCc1noc(CN2CCCN(C(C)=O)CC2)n1 the result was 0.6324%.
For CCCc1n[nH]c(C2CN(CCNS(C)(=O)=O)CCO2)n1 (centres unmarked) the result was -50.17%.
For COc1ccc(C2CCCCCN2CCCNS(C)(=O)=O)cc1 (centres unmarked) the result was -2.211%.
For O=C(c1cccn1Cc1cccs1)N1CCC(C(=O)N2CCCC2)CC1 the result was -55.84%.
For CC(=O)N1CCN(C(=O)NCCc2ccc(Cl)s2)CC1 the result was -1.41%.
For O=C(Nc1cccnc1)C1=NN(c2ccccc2)C(=O)CN1 the result was -65.06%.
For c1cnnc(NCC2CN(CC3CCOCC3)CCO2)c1 (centres unmarked) the result was -38.88%.
For c1ccc(OCCNC2CCCN(Cc3noc(C4CC4)n3)C2)cc1 (centres unmarked) the result was 7.459%.
For O=C1C(NS(=O)(=O)c2ccc(F)c(F)c2)CCN1Cc1ccccc1 (centres unmarked) the result was -5.244%.
For CCc1noc(C(C)N2CCN(S(=O)(=O)N3CCCC3)CC2)n1 (centres unmarked) the result was -47.36%.
For O=C(c1ccc(NC2CC2)nc1)N1CCC(Nc2cccnn2)CC1 the result was -24.49%.
For O=C(NCC(F)(F)F)C1CSCN1S(=O)(=O)c1ccccc1F (centres unmarked) the result was -25.15%.
For Cn1cnnc1C1CCCN(C(=O)c2ccccn2)C1 (centres unmarked) the result was -37.62%.
For O=C(CCCOc1cccc(F)c1)N1CCCC(n2cncn2)C1 (centres unmarked) the result was -36.35%.
For CCCC1CCCN(C(=O)CCn2cccn2)CC1 (centres unmarked) the result was -51.51%.
For Cc1cnc(CN(C)C2CCN(CCCc3cnn(C)c3)C2)o1 (centres unmarked) the result was -36.42%.
For CC(=O)Nc1nc(CN2CCOC(Cn3cncn3)C2)cs1 (centres unmarked) the result was -43.95%.
For CCCc1noc(CCC(=O)N2CCCC2c2ccc(OC)cc2)n1 (centres unmarked) the result was -19.09%.
For NS(=O)(=O)Cc1ccc(CNc2cncc(-n3cccn3)n2)cc1 the result was -16.61%.
For Cc1nc(C)n(C2CCCN(C(=O)Cc3cn4ccccc4n3)C2)n1 (centres unmarked) the result was -62.42%.
For Cc1noc(C)c1C(=O)NCC(C)N1CCc2ccccc21 (centres unmarked) the result was -61.25%.
For CNC(=O)CCNC(=O)c1cc(C)n(-c2cccc(OC)c2)c1C the result was -11.02%.
For CCOc1ncccc1NC(=O)N1CCN(CC(=O)NC)CC1 the result was -53.93%.
For N#CC1(NC(=O)CN2CCC(c3ccnn3CCO)CC2)CCCC1 the result was -54.59%.
For CCN(CC(=O)NC1(C)CCS(=O)(=O)C1)Cc1ccc(OC)c(F)c1 (centres unmarked) the result was -8.169%.
For CN(C)CCC1CCN(Cc2ccn(C)c(=O)c2)CC1 the result was -52.24%.
For Cn1c(NCC(O)c2ccc(Cl)cc2)c(C#N)c(=O)n(C)c1=O (centres unmarked) the result was -2.155%.
For Cc1nn(C)c(C)c1C1COCCN1C(=O)c1ccc(Cl)o1 (centres unmarked) the result was -69.44%.
For CCn1c(C)nnc1CN(C)C1CCN(CC2CCC2)C1 (centres unmarked) the result was -57.3%.
For CCc1ccc(C(=O)N2CCCCC2Cn2cccn2)o1 (centres unmarked) the result was -14.47%.
For CCn1cc(C(=O)N2CCCC(c3noc(C)n3)C2)cn1 (centres unmarked) the result was -26.02%.
For CCc1noc(C(C)N2CCN(CC(C)C)CC2)n1 (centres unmarked) the result was -12.08%.
For Cn1cc(CCNCc2cc(Br)c3c(c2)OCO3)cn1 the result was -24.9%.
For Cc1cc(C)c(CNC(=O)CC2CCCO2)c(=O)[nH]1 (centres unmarked) the result was -59.78%.
For Cc1cc(C(=O)N2CCCC2)ccc1NCC(=O)N1CCOCC1 the result was -19.82%.
For CC(CNC(=O)Nc1cn[nH]c1)N1CCCC1 (centres unmarked) the result was -32.54%.
For Cc1ccccc1OCC(O)CN1CCC(c2ccn[nH]2)CC1 (centres unmarked) the result was -59.89%.
For Cc1ccc(S(C)(=O)=O)cc1C(=O)N1CCCC(n2cncn2)C1 (centres unmarked) the result was -56.76%.
For O=C(COCC(F)(F)F)N1CCCC(n2cccn2)C1 (centres unmarked) the result was -58.83%.
For c1cnnc(N2CCCC2CNc2cnc3ccccc3n2)c1 (centres unmarked) the result was -4.729%.
For CC(NC(=O)NCCCc1n[nH]c(N)c1C#N)c1ccc(F)c(F)c1 (centres unmarked) the result was -2.372%.
For O=C(CCn1cncn1)NCC(c1ccco1)N1CCCCC1 (centres unmarked) the result was -60.8%.

The last 5 entries again:

Cc1ccc(S(C)(=O)=O)cc1C(=O)N1CCCC(n2cncn2)C1 (centres unmarked) read -56.76%.
O=C(COCC(F)(F)F)N1CCCC(n2cccn2)C1 (centres unmarked) read -58.83%.
c1cnnc(N2CCCC2CNc2cnc3ccccc3n2)c1 (centres unmarked) read -4.729%.
CC(NC(=O)NCCCc1n[nH]c(N)c1C#N)c1ccc(F)c(F)c1 (centres unmarked) read -2.372%.
O=C(CCn1cncn1)NCC(c1ccco1)N1CCCCC1 (centres unmarked) read -60.8%.

Measurements from “University of Dundee, Small-Polar-MMV Screening Library” (2021), ChEMBL document CHEMBL3988442.